Test results as given in PubChem BioAssay AID504834 (National Center for Advancing Translational Sciences (NCATS), 2011).
About 22,000 (6.9%) of roughly 320,000 compounds were called active. The inconclusive results got no clear call from the source; some entries with a clear call stand among them for comparison. The call rests on the fitted dose curve; in most records, active means well fitted inhibition curve with a large enough effect; inconclusive means small, poorly fitted or top-dose-only effect, or another doubt; inactive means no such curve, though single readings can be large or run the other way. Potencies of inconclusive entries are doubtful fits and often do not repeat.

assay: Primary qHTS for delayed death inhibitors of the malarial parasite plastid, 96 hour incubation; details: P. falciparum luciferase reporter growth; series mostly up to 28.7 µM; activity change, negative = inhibition: at the top concentration
How it was run: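 Infected RBCs, 2% Hct / 0.05% parasitemia final; luciferase-reporter P. falciparum; cpd 96 h, 37 C, 5% CO2; luciferase detection reagent; luminescence.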
On the % scale 0 is the no-effect control and ±100 the full control effect; potency means the concentration at half of the fitted maximal effect.

| Structure (SMILES) | Potency | activity change, negative = inhibition |
| --- | --- | --- |
| O=C(CN1C(=O)CCSc2ccccc21)N1CCC2(CC1)OCCO2 | inconclusive: 11.7 µM [inhibitor, single point] |  |
| COc1ccc(CCNC(=O)CCn2c(SCC(=O)N3CCCC3)nc3ccccc3c2=O)cc1OC | inconclusive: 1.04 µM [inhibitor, partial curve, poor fit] |  |
| O=C(CSCc1cc(=O)n2ccsc2n1)Nc1ccccc1 | inconclusive: 3.7 µM [inhibitor, partial curve, poor fit] |  |
| COc1cc(S(=O)(=O)NC2CCCCC2C)ccc1-n1cnnn1 (stereo not given) | inconclusive: 18.5 µM [inhibitor, single point] |  |
| COc1ccc(C(c2nnnn2Cc2ccccc2)N2CCN(c3ccccc3)CC2)cc1 (stereo not given) | active: 13.1 µM |  |
| Oc1ccc(C2=NN(c3ccccc3)C(c3ccc(F)cc3)C2)cc1 (stereo not given) | inconclusive: 3.7 µM [inhibitor, partial curve, poor fit] |  |
| Cc1ccccc1NS(=O)(=O)c1ccc(-c2ccc(=O)[nH]n2)o1 | active: 13.1 µM |  |
| CC(C)[C@H](NC(=O)c1cc2cc(Cl)ccc2n1C)C(=O)N1CCC(C(=O)O)CC1 |  | inactive: 27% |
| Cc1cc(CN(C)C(=O)CC2C(=O)NCCN2Cc2ccc(-c3ccccc3)cc2)on1 (stereo not given) | active: 10.4 µM |  |
| CCCC(O)(c1ccc(OC)cc1)C(CN1CCOCC1)c1ccccc1 (stereo not given) |  | inactive: 12.4% |
| Cc1ccc(CSc2nnc(SCC(=O)N/N=C/c3c[nH]c4ccccc34)s2)cc1 |  | inactive: 111% |
| CC(C)OCCCNC(=O)CN1C(=O)/C(=C/c2ccccc2)Sc2ccccc21 | inconclusive: 3.29 µM [inhibitor, full curve, poor fit] |  |
| Clc1ccc(C2=NNC(=NCc3ccccc3)SC2)cc1 | inconclusive: 5.22 µM [inhibitor, partial curve, poor fit] |  |
| CCOC(=O)[C@@H]1[C@H]2COc3ccccc3[C@@H]2N2C(=O)N(c3ccc(Cl)cc3)C(=O)[C@@]12C |  | inactive: 10.4% |
| C(=N\Nc1nc(-c2ccccn2)nc2ccccc12)/c1ccccc1 | active: 2.08 µM |  |
| Cc1cc(C(=O)OCC(=O)N(C)c2ccccc2)ccc1[N+](=O)[O-] |  | inactive: 19.2% |
| O=C(Nc1ccc2c(c1)C(=O)OC2)c1ccccc1Cl |  | inactive: 32% |
| CCOC(=O)c1cccc(-n2c(C)cc(C=O)c2C)c1 | inconclusive: 2.08 µM [inhibitor, partial curve, poor fit] |  |
| CCOC(=O)c1ccc(Oc2c(C)oc3cc(OS(C)(=O)=O)ccc3c2=O)cc1 |  | inactive: -21.1% |
| Cc1occc1C(=O)NC1CCCc2ccccc21 (stereo not given) |  | inactive: 6.35% |
| CCc1nccn1S(=O)(=O)c1ccc(OC)c(C)c1C |  | inactive: 46.7% |
| O=C(O)CCCNC(=O)CCCNC(=O)C(c1ccccc1)c1ccccc1 | inconclusive: 2.33 µM [inhibitor, partial curve, poor fit] |  |
| COc1cc(NC(=S)Nc2ccc(Br)cc2Cl)c(OC)cc1Cl | inconclusive: 11.7 µM [inhibitor, single point] |  |
| Cn1c(=O)[nH]c(=O)c2c1nc1n2CCS1 |  | inactive: 6.21% |

| Structure (SMILES) | Potency | activity change, negative = inhibition |
| --- | --- | --- |
| Cc1sc(NC(=O)c2ccccc2)c(C#N)c1-c1ccccc1 | active: 4.15 µM |  |
| Cc1ccc(-c2c(C(=O)NC(C)C)oc(=O)c3ccccc23)cc1 | inconclusive: 0.0738 µM [inhibitor, full curve, poor fit] |  |
| COc1ccccc1NC(=O)c1cc(C)nc2ccccc12 |  | inactive: -12.5% |
| O=C(CN(c1ccc2c(c1)OCCO2)S(=O)(=O)c1ccccc1)NCc1ccc(Cl)cc1 | active: 11.7 µM |  |
| O=C(COC(=O)c1cnccn1)Nc1ccc(Cl)cc1C(F)(F)F |  | inactive: 5.52% |
| CC1CCN(c2c(NCC3CCC(C(=O)NCCC4=CCCCC4)CC3)c(=O)c2=O)CC1 (stereo not given) | inconclusive: 2.08 µM [inhibitor, full curve] |  |
| C=CCn1c(N)c(C(=O)NCC2CCCO2)c2nc3ccccc3nc21 (stereo not given) | inconclusive: 8.28 µM [inhibitor, partial curve, poor fit] |  |
| Cc1cc(C(=O)COc2ccccc2C(N)=O)c(C)n1CC1CCCO1 (stereo not given) |  | inactive: 9.84% |
| Cn1cc(NC(=O)OCc2ccc(Cl)cc2)c(C(F)(F)F)n1 | inconclusive: 9.28 µM [inhibitor, partial curve, poor fit] |  |
| COc1cc(-c2noc(C)c2/C=C/c2ccc(OC(C)=O)cc2)cc(OC)c1OC | inconclusive: 13.1 µM [inhibitor, single point] |  |
| CN1CCC(N(C)C(=O)c2ccc(Cl)c(S(=O)(=O)N3CCCCC3)c2)CC1 | inconclusive: 18.5 µM [inhibitor, single point] |  |
| CCS(=O)(=O)N1Cc2ccccc2CC1C(=O)N1CCN(c2ccccc2)CC1 (stereo not given) | inconclusive: 3.7 µM [inhibitor, partial curve] |  |
| CC(C)(C)C(=O)[C@@H]1[C@@H]2C(=O)N(Cc3ccccc3)C(=O)[C@@H]2[C@H]2c3ccccc3C=CN12 | inconclusive: 13.1 µM [inhibitor, partial curve, poor fit] |  |
| CCOC(=O)c1cnc2ccc(OC)cc2c1NCCN1CCOCC1 | inconclusive: 9.28 µM [inhibitor, single point] |  |
| O=C(c1ccc(-c2nnc(Nc3ccccc3)c3ccccc23)cc1)N1C[C@H]2C[C@H](C1)c1cccc(=O)n1C2 | active: 3.7 µM |  |
| CN1CCN(S(=O)(=O)c2ccc(NC(=S)NC(=O)c3ccc(Cl)cc3)cc2)CC1 | active: 2.33 µM |  |
| CN(C(=O)c1cccn(Cc2ccccc2)c1=O)c1ccccc1 | inconclusive: 0.0928 µM [inhibitor, full curve, poor fit] |  |
| COc1ccc(CCNc2ccc(S(=O)(=O)N3CCN(C)CC3)cc2[N+](=O)[O-])cc1 | inconclusive: 9.28 µM [inhibitor, partial curve] |  |
| Cc1cccc(C(=O)NC(=S)NNC(=O)c2cccs2)c1 | inconclusive: 1.04 µM [inhibitor, partial curve, poor fit] |  |
| CC(C)(C)c1ccc(Cn2ccc(-c3ccc4c(c3)OCO4)n2)cc1 | inconclusive: 14.7 µM [inhibitor, partial curve, poor fit] |  |
| CC1=C(C#N)C2C(/C1=N/O)C2(C)C (stereo not given) |  | inactive: 9.49% |
| NC(=O)CC1C(=O)N(c2ccccc2)C(=S)N1NC(=O)c1ccc(Br)cc1 (stereo not given) |  | inactive: 37.5% |
| O=Nc1c(O)n(Cc2ccc(Cl)cc2Cl)c2ccccc12 | active: 8.28 µM |  |
| O=C(C1CCCO1)N1CCN(C(=S)Nc2ccccc2F)CC1 (stereo not given) |  | inactive: 12.9% |

Looked up above.
Value of O=C(C1CCCO1)N1CCN(C(=S)Nc2ccccc2F)CC1 (stereo not given) under activity change, negative = inhibition: inactive: 12.9%
Value of O=C(c1ccc(-c2nnc(Nc3ccccc3)c3ccccc23)cc1)N1C[C@H]2C[C@H](C1)c1cccc(=O)n1C2 under Potency: active: 3.7 µM
Value of CN1CCC(N(C)C(=O)c2ccc(Cl)c(S(=O)(=O)N3CCCCC3)c2)CC1 under Potency: inconclusive: 18.5 µM [inhibitor, single point]
Value of CC1=C(C#N)C2C(/C1=N/O)C2(C)C (stereo not given) under activity change, negative = inhibition: inactive: 9.49%
Value of CCOC(=O)c1cnc2ccc(OC)cc2c1NCCN1CCOCC1 under Potency: inconclusive: 9.28 µM [inhibitor, single point]
Value of COc1cc(-c2noc(C)c2/C=C/c2ccc(OC(C)=O)cc2)cc(OC)c1OC under Potency: inconclusive: 13.1 µM [inhibitor, single point]

(continued)

| Structure (SMILES) | Potency | activity change, negative = inhibition |
| --- | --- | --- |
| COc1ccc(N(C(=O)CSCC(=O)Nc2cc(C)on2)C(C(=O)NC2CCCCC2)c2ccc(O)c(O)c2)cc1 (stereo not given) | active: 2.62 µM |  |
| O=C(NCC[C@@H]1C[C@@H]2C=C[C@H]1C2)c1cc(COc2ccc(F)cc2F)on1 | inconclusive: 18.5 µM [inhibitor, single point] |  |
| O=C(Nc1ccc2ccccc2n1)c1ccccc1Cl |  | inactive: 392% |
| Cc1ccc(S(=O)(=O)N2CCC(C(=O)N3CCc4ccccc43)CC2)cc1C | inconclusive: 18.5 µM [inhibitor, single point] |  |
| NNC(=O)Cn1c(-c2ccccc2)cc(=O)n2ncnc12 |  | inactive: 2.99% |
| Cc1cc(C)c2cc(CN(CCO)C(c3nnnn3Cc3ccc(F)cc3)C(C)C)c(=O)[nH]c2c1 (stereo not given) | active: 11.7 µM |  |
| O=[N+]([O-])c1ccccc1-c1nc(-c2ccc(Br)o2)no1 | inconclusive: 13.1 µM [inhibitor, single point] |  |
| O=C(Nc1nc2cc3c(cc2s1)OCCO3)c1cccc(S(=O)(=O)N2CCOCC2)c1 | inconclusive: 7.38 µM [inhibitor, partial curve, poor fit] |  |
| CC1(c2nnc(Cc3ccccc3)o2)CC(c2ccc([N+](=O)[O-])cc2)=NO1 (stereo not given) |  | inactive: 41.8% |
| C=CCN1C(=O)c2ccccc2Sc2ccc(C(=O)NC(C)C)cc21 |  | inactive: -9.79% |
| CCN(CCCNC(=O)CNC(=O)c1nn(-c2ccc(OC)c(OC)c2)c(=O)c2ccccc12)c1ccccc1 | inconclusive: 1.04 µM [inhibitor, single point] |  |
| NC(=O)CSC1=Nc2ccccc2C2=NC(CCC(=O)NCc3ccc(F)cc3)C(=O)N12 (stereo not given) | inconclusive: 13.1 µM [inhibitor, single point] |  |
| COc1ccccc1CNC(=O)[C@H](C)NC(=O)C1CCN(C(=O)[C@@H](N)C(C)C)CC1 |  | inactive: 32.4% |
| CCc1nc(SCC(=O)Nc2ccc(F)cc2)c2c(=O)n(C)c(=O)n(C)c2n1 | inconclusive: 18.5 µM [inhibitor, single point] |  |
| CC(=O)c1ccc(N2CCN(C(=O)c3ccc4c(Cl)c5c(nc4c3)CCCC5)CC2)cc1 | inconclusive: 18.5 µM [inhibitor, single point] |  |
| COc1cc(C(=O)N(C)CCOc2ccccc2)ccc1OCC(=O)Nc1cccc(C(F)(F)F)c1 |  | inactive: -8.67% |
| COc1ccc(Cn2c3ccc(OC)cc3c3nc4ccccc4nc32)cc1 |  | inactive: -2.37% |
| Cc1cc(NC(=O)CSc2nc3ccccc3n2CC(=O)N2CCC(C)CC2)no1 | inconclusive: 18.5 µM [inhibitor, single point] |  |
| Cc1nn(-c2ccc(N3CCCCC3)nn2)c(C)c1CCC(=O)Nc1cc(F)ccc1F | inconclusive: 18.5 µM [inhibitor, single point] |  |
| O=C(c1ccc(NS(=O)(=O)c2ccc3[nH]c(=O)[nH]c3c2)cc1)N1CCN(c2ccccc2O)CC1 | inconclusive: 8.28 µM [inhibitor, partial curve, poor fit] |  |
| COc1ccc(NC(=O)c2ccc(CN3CCN(c4ccccc4)CC3)cc2)cc1 | inconclusive: 14.7 µM [inhibitor, single point] |  |
| COc1cccc(NC(=O)CN(c2ccccc2OC)S(=O)(=O)c2cccs2)c1 | inconclusive: 18.5 µM [inhibitor, single point] |  |
